We go through 2 sequences from article PMC10359602.

Amino acid sequences for entries named in this document (tags omitted). A change or cut given only in a name is not applied to a line headed by its entry.
UniProt P0CAW2: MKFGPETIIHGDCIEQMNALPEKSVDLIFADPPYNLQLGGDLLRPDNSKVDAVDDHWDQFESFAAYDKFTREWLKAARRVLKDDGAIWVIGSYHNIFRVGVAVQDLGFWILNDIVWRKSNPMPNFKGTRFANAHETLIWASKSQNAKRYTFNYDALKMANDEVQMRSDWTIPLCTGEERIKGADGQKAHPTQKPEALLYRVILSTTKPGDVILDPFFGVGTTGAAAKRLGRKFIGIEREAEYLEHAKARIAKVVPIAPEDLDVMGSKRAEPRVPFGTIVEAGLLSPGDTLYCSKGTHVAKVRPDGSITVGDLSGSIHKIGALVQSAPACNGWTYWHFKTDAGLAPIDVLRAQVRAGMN

The target in series [1] is CcrM WT (Caulobacter crescentus) (UniProt P0CAW2). Briefly: pyrrolo-dC fluorescence kinetics. The settings on record: SAM in excess, strand separation observed; pyrrolo-dC at position 15 of strand 1 (written C); N6-methyl-A at position 14 (5' to 3') of strand 2; recombinant protein; protein details: His-tag implied (HisTrap purification); label: pyrrolo-dC.
In series [2] the target is CcrM W332Y (Caulobacter crescentus) (UniProt P0CAW2). Briefly: fluorescence anisotropy. To be noted: 30 uM SAH, Hill h = 0.9, apparent Kd, above tested range 0-1000 nM, N6-methyl-A at position 14 (5' to 3') of strand 2 (hemimethylated), Anisotropy: 10 nM FAM-DNA, 0-1000 nM protein, 100 mM HEPES, 1 mM EDTA, 20 mM NaCl, pH 8, room temperature, 20 min, recombinant protein, protein details: His-tag implied (HisTrap purification), label: 5' 6-FAM on strand 1. On the technique in general: Polarisation of emitted light reports the rotation of a fluorescent probe.

Construct, isoform or probe ends are uncertain for at least one entry. For some assays here: At least one verdict rests on a figure or table, not on a statement of the authors.

“TCACTGTACTCTGACTCGCCTGACATGAC (double strand) [P1]”: the binding result in series [1] was “binds”.
As for “TCACTGTACTCTGACTCGCCTGACATGAC (double strand) [C1-FAM]”, the Kd in series [2] came out at 1.18 µM.
